Experimental data taken from article PMC6171917.
No constants are given. Whether binding was seen depends on the method and setting. Some binding calls cover weakened binding; strength is not graded here. Where a sequence is shown, tags or fusion partners need not be part of it.

By UniProt entry, the sequences of proteins in these tests, tags left out. Where a name states a change or a piece, a line headed by the entry shows the natural chain unless it says otherwise.
UniProt P17661: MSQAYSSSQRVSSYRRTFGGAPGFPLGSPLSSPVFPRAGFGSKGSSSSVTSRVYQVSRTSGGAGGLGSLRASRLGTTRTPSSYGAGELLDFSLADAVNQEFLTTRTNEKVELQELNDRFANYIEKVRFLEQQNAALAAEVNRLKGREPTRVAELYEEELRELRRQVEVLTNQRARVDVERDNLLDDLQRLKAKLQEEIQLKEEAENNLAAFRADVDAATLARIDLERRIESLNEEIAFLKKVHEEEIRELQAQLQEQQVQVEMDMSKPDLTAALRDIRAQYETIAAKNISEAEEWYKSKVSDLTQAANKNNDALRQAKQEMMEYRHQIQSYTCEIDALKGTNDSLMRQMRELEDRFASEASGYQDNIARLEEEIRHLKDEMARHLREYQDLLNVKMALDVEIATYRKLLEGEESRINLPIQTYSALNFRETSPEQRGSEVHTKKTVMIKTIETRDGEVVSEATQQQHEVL
UniProt P13647: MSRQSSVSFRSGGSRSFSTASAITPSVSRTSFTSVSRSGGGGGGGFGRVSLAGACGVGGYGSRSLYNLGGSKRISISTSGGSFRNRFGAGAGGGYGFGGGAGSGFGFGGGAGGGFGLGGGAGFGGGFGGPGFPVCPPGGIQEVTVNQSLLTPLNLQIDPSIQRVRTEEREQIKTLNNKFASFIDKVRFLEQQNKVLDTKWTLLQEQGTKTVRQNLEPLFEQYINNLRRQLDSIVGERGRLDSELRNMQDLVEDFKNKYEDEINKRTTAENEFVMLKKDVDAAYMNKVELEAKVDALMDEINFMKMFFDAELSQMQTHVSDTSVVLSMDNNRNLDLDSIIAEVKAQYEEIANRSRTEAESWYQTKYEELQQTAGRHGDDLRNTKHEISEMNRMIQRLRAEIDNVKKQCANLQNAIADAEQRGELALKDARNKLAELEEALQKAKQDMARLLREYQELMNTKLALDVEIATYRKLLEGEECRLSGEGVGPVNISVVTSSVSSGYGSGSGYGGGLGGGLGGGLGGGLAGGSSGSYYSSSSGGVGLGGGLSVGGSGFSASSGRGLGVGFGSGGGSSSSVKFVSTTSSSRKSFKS

How the values were obtained:
desmin, full-length [1] = biological target: desmin, full-length (UniProt P17661); test: far-Western, overlay or dot blot; FluoBACE overlay of western blot: whole extracts from E. coli expressing the proteins on 15% SDS-PAGE, transferred, overlaid 1 h at 4°C with soluble HEK 293T extract with EGFP-DSP C-terminus (67 ± 17 nM total), fluorescence scan
[2] = biological target: H6-small ubiquitin-related modifier (SUMO) [SUMO: Q12306]; test: far-Western, overlay or dot blot; FluoBACE overlay of western blot: purified proteins (4 μg/lane) on 15% SDS-PAGE, transferred, blocked in PBS 5% skim milk, overlaid 1 h at 4°C with soluble HEK 293T extract with EGFP-DSP C-terminus (67 ± 17 nM total), fluorescence scan; only the target purified
desmin, full-length [3] = biological target: desmin, full-length (UniProt P17661); test: as above
[4] = biological target: K5/K14 (mixture or heterodimer of full-length cytokeratins 5 and 14) (UniProt P13647); test: far-Western, overlay or dot blot; FluoBACE dot blot: Ks, individual or mixed, spotted on nitrocellulose (3 pmol/spot) in Tris-HCl/DTT/urea buffers; overlaid with soluble extracts of HEK 293T cells expressing EGFP-DSP C-terminus (64 ± 29 nM or 55 ± 21 nM total) and scanned for fluorescence; only the target purified

B1: EGFP-DSP C-terminus (C-terminus of desmoplakin tagged at the N-terminus with EGFP) (domain or fragment, UniProt P15924-1 2194-2871)
chain: PHTGLLLLSVQKRSMSFQGIRQPVTVTELVDSGILRPSTVNELESGQISYDEVGERIKDFLQGSSCIAGIYNETTKQKLGIYEAMKIGLVRPGTALELLEAQAATGFIVDPVSNLRLPVEEAYKRGLVGIEFKEKLLSAERAVTGYNDPETGNIISLFQAMNKELIEKGHGIRLLEAQIATGGIIDPKESHRLPVDIAYKRGYFNEELSEILSDPSDDTKGFFDPNTEENLTYLQLKERCIKDEETGLCLLPLKEKKKQVQTSQKNTLRKRRVVIVDPETNKEMSVQEAYKKGLIDYETFKELCEQECEWEEITITGSDGSTRVVLVDRKTGSQYDIQDAIDKGLVDRKFFDQYRSGSLSLTQFADMISLKNGVGTSSSMGSGVSDDVFSSSRHESVSKISTISSVRNLTIRSSSFSDTLEESSPIAAIFDTENLEKISITEGIERGIVDSITGQRLLEAQACTGGIIHPTTGQKLSLQDAVSQGVIDQDMATRLKPAQKAFIGFEGVKGKKKMSAAEAVKEKWLPYEAGQRFLEFQYLTGGLVDPEVHGRISTEEAIRKGFIDGRAAQRLQDTSSYAKILTCPKTKLKISYKDAINRSMVEDITGLRLLEAASVSSKGLPSPYNMSSAPGSRSGSRSGSRSGSRSGSRSGSRRGGFDATGNSSYSYSYSFSSSSIGH
Q: With B1 as the binder, how does the binding (desmin, full-length [1]) read?
A: binds

Q: What about the binding [2] of the same binder?
A: no binding (tested: 67 ± 17 nM, total concentration)

Q: What about the binding (desmin, full-length [3]) of the same binder?
A: binds

Q: What about the binding [4] of the same binder?
A: binds
